Laboratory results: PMC3305383
No constants are given. Whether binding was seen depends on the method and setting. For some of these results: In cells and extracts the contact can be indirect. Some results given as binding are weak or reduced against the parent protein; the word gives no strength. For some of these results: Tags and fused reporters may be left off the sequences shown.

The chains behind the UniProt entries cited, without tags or fusion partners.
UniProt Q61466: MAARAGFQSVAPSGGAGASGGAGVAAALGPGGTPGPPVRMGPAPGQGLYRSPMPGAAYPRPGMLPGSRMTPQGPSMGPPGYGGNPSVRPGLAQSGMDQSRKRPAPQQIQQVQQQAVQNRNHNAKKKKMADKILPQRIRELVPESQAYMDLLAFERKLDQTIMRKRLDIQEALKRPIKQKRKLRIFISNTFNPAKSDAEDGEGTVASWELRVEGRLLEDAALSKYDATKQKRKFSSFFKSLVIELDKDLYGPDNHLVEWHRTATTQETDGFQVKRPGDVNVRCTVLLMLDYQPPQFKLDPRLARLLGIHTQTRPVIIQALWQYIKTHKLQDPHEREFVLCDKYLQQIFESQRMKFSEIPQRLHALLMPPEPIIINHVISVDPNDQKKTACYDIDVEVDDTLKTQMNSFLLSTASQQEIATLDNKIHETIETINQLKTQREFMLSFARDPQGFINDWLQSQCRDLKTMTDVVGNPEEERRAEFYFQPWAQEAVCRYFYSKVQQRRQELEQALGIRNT
UniProt Q6P9Z1: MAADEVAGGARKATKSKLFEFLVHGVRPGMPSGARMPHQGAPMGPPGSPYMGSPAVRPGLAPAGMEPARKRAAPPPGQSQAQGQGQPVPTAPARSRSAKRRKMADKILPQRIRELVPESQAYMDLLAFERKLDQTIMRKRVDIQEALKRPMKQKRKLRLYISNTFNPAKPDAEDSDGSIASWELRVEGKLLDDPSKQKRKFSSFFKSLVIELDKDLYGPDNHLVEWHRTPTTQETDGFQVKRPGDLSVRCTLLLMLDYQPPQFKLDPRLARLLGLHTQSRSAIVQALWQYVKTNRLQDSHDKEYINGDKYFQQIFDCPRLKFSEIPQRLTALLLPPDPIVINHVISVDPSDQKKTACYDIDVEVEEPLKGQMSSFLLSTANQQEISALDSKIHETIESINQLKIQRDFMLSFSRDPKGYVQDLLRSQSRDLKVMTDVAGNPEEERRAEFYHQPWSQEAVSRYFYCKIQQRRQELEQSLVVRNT
UniProt P97496: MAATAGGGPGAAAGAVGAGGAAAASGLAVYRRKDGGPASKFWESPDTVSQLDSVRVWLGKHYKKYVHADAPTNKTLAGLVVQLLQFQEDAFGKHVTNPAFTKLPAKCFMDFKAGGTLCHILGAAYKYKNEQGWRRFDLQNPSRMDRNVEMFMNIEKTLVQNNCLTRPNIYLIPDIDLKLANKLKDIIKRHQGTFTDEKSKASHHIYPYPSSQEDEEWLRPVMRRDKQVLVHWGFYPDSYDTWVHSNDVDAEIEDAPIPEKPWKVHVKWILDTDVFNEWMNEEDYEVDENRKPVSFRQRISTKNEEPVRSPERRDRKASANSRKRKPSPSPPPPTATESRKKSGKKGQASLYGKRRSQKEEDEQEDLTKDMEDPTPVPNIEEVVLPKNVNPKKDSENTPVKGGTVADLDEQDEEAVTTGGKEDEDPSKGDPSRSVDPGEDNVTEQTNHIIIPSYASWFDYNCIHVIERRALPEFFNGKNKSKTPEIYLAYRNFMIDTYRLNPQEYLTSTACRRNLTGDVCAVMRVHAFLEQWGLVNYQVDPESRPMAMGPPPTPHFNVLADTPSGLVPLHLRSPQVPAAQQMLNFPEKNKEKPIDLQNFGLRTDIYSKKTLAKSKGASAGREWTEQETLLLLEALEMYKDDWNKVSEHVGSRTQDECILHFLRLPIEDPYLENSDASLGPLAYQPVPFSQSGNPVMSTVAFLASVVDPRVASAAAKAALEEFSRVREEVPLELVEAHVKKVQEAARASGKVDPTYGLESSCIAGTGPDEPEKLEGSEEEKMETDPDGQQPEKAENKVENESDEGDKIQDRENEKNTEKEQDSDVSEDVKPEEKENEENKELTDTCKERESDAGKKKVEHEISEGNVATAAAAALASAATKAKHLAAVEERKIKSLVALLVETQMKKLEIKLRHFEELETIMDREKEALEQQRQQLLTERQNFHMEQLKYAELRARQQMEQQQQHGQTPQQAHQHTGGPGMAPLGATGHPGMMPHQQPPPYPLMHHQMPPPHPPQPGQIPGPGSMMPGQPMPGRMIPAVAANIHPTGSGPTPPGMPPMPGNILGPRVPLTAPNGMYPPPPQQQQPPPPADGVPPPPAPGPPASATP

Legend:
Tbx1-TEV-ProteinA = target: T1, Tbx1-TEV-ProteinA (UniProt P70323); assay: native affinity purification (Protein A tag on IgG sepharose) with Western blot; nuclear extracts of P19-Tbx1-PA cells on IgG sepharose columns; Tbx1-containing complexes released by TEV cleavage; Western blot with anti-Baf60a and anti-p300
T1 sequence: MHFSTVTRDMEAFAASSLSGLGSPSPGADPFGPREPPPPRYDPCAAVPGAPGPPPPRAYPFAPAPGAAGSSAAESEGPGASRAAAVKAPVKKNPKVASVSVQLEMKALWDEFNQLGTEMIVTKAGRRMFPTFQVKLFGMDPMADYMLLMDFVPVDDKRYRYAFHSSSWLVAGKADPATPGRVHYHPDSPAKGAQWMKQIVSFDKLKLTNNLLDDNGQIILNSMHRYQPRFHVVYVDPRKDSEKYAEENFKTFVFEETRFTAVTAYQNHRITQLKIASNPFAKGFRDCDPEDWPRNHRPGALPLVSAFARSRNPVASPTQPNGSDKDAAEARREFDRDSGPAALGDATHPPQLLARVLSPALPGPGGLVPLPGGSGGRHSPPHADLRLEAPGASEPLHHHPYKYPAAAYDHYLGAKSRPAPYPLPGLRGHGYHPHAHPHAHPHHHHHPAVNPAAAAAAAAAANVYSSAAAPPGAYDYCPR

[1] = target: T2, Tbx1 (mouse (endogenous in P19Cl6)) (UniProt P70323); assay: co-IP; about 100 ug nuclear extract of P19Cl6 cells, endogenous proteins; IP with anti-Tbx1 antibody or rabbit IgG, Protein A/G PLUS agarose at 4°C overnight; 6 washes with IPP150 (10 mM Tris-HCl pH 8.0, 150 mM NaCl, 0.1% NP-40); Western blot
T2 sequence: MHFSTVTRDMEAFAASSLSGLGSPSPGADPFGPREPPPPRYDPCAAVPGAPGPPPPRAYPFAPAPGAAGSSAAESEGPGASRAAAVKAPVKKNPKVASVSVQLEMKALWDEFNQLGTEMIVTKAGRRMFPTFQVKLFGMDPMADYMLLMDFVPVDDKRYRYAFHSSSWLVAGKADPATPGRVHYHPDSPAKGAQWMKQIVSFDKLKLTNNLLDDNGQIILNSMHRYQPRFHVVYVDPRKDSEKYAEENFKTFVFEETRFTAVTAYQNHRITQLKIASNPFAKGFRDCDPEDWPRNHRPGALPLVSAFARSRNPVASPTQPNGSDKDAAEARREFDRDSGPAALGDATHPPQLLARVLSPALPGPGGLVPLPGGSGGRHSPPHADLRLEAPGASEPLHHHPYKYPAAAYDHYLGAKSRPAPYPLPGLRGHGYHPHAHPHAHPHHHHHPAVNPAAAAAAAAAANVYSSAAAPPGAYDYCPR

GST-Tbx1 = target: T3, GST-Tbx1 (UniProt P70323); assay: pull-down; GST-Tbx1 pull-down from a lysate of P19Cl6 cells overexpressing Baf60a; ProFound Pull-Down GST Protein:Protein Interaction Kit (PIERCE); Western blot; only the target purified
T3 sequence: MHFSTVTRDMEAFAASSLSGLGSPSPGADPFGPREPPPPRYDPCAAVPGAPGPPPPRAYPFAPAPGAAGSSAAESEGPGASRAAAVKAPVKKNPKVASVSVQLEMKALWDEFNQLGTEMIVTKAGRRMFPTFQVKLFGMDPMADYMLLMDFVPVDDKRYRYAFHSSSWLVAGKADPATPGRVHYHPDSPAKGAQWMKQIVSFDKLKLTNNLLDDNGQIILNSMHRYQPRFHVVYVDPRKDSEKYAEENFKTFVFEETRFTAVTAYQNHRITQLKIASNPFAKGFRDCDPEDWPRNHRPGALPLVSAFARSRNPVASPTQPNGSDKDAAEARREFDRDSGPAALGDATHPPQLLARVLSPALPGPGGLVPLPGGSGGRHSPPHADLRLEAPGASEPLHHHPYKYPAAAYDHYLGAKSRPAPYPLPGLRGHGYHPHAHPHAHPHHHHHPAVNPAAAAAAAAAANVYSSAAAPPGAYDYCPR

Tbx1-3HA = target: T4, Tbx1-3HA (UniProt P70323); assay: co-IP; P19Cl6 cells transiently co-transfected with Tbx1-3HA and Baf60c-Flag; anti-HA immunoprecipitation kit; Western blot with anti-HA and anti-Flag
T4 sequence: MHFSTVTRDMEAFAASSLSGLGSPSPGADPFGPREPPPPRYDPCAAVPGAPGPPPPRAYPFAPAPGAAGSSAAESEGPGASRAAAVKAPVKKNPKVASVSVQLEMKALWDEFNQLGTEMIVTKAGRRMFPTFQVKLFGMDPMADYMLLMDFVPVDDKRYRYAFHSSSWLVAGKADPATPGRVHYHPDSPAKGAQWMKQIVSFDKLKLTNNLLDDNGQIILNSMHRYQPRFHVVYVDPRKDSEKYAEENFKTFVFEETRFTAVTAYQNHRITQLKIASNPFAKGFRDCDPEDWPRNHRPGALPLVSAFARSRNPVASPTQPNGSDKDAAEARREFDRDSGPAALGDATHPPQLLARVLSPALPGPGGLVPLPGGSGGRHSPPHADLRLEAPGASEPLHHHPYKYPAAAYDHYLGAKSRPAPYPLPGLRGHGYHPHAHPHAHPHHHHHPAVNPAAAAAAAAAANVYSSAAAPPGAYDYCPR

[2] = target: Baf60a (mouse (endogenous in E9.5 embryos)) (UniProt Q61466); assay: co-IP; nuclear extracts of E9.5 WT (and Tbx1-/- control) mouse embryos, endogenous proteins; IP with anti-Baf60a antibody, Western blot with anti-Tbx1

## Baf60a (from UniProt Q61466 1-515)
Tbx1-TEV-ProteinA
  binding: binds
[1]
  binding: binds

## Baf60a (overexpressed) (from UniProt Q61466 1-515)
GST-Tbx1
  binding: binds

## Baf60c-Flag (from UniProt Q6P9Z1 1-483)
Tbx1-3HA
  binding: no binding

## Baf155 (from UniProt P97496 1-1104)
[1]
  binding: no binding

B1: Setd7 (enzyme, UniProt Q8VHL1 1-366)
chain: MDSDDEVVEEAVEGHLDDDGLPHGFCTVTYSSTDRFEGNFVHGEKNGRGKFFFFDGSTLEGYYVDDALQGQGVYTYEDGGVLQGTYVDGELNGPAQEYDSDGRLIFKGQYKDNNRHGVCWIHYPDGGSLVGEVNEDGEMTGEKIAYVYPDQRTALYGKFIDGEMLEGKLATLMATEEGRPHFEVTSGSSVYHFDKSTSSCISSDALLPDPYESERVYVADSLISSAGEGLFSKVAVGPNTVMSFYNGVRITHQEVDSRDWALNGNTLSLDEETVIDVPEPYNHVSKYCASLGHKANHSFTPNCVYDLFVHPRFGPIKCIRTLRAVEAEEELTVAYGYDHSPPGKSGPEAPEWYQVELKAFQATQQK
[1]
  binding: binds

B2: Tbx1 (protein, UniProt P70323 1-479)
chain: MHFSTVTRDMEAFAASSLSGLGSPSPGADPFGPREPPPPRYDPCAAVPGAPGPPPPRAYPFAPAPGAAGSSAAESEGPGASRAAAVKAPVKKNPKVASVSVQLEMKALWDEFNQLGTEMIVTKAGRRMFPTFQVKLFGMDPMADYMLLMDFVPVDDKRYRYAFHSSSWLVAGKADPATPGRVHYHPDSPAKGAQWMKQIVSFDKLKLTNNLLDDNGQIILNSMHRYQPRFHVVYVDPRKDSEKYAEENFKTFVFEETRFTAVTAYQNHRITQLKIASNPFAKGFRDCDPEDWPRNHRPGALPLVSAFARSRNPVASPTQPNGSDKDAAEARREFDRDSGPAALGDATHPPQLLARVLSPALPGPGGLVPLPGGSGGRHSPPHADLRLEAPGASEPLHHHPYKYPAAAYDHYLGAKSRPAPYPLPGLRGHGYHPHAHPHAHPHHHHHPAVNPAAAAAAAAAANVYSSAAAPPGAYDYCPR
[2]
  binding: binds
